# Hit rate of the full screen: of about 340,000 compounds, about 170 (0.05%) were called active. Inconclusive results, whose numbers are uncertain, are shown with a selection of clear calls. The call rests on the fitted dose curve; in most records, active means well fitted inhibition curve with a large enough effect in the signal ratio, with a control signal flat (not every such curve was filed as active); inconclusive means small, poorly fitted or top-dose-only effect, or effect the other way, or a change in a side signal; inactive means flat fitted curve, though single readings scatter; the % refers to the signal ratio. A potency beside an inconclusive call is a rough fit, not a confirmed value.
# Assay: qHTS Assay to Find Inhibitors of Chronic Active B-Cell Receptor Signaling;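 on activity change, negative = inhibition: plate controls were basal doxycycline-induced cells for no effect and cells given 10 µM MG132 for full effect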
# Details: ABC-DLBCL IkBa-CBG/CBR reporter, luminescence ratio (green luciferase fused to IkBa over red control in TMD8 lymphoma cells), 4 h; activity change, negative = inhibition: at 46.1 µM (top of the series)
# Procedure, shortened: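 TMD8 human ABC-DLBCL cells with doxycycline-inducible IκBα–green luciferase fusion and unfused red luciferase, in 0.5% FBS medium; compounds up to 46 uM, 4 h at 37C. Green/red luminescence ratio, filter-overlap corrected, fitted to concentration-response curves.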
# Potency means the concentration at half of the fitted maximal effect.
Compound,"activity change, negative = inhibition",Potency
COc1ccc(C2CC(c3cccs3)=NN2C(=O)CN2CCCCC2)cc1 (stereo not drawn),inconclusive: 4.02%,
CC(C)(C)NC(=O)Cn1c(SCC(=O)Nc2nccs2)nc2ccccc21,,"inconclusive: 2.31 µM [falling, partial curve, poor fit]"
Cc1ccc(C(=O)NC(=S)NNC(=O)CC#N)cc1,inconclusive: 3.6%,
CCOC(=O)Nc1nnc(CCc2ccccc2)s1,inconclusive: 8.57%,
c1ccc(SCCN2CCc3ccccc3C2)cc1,inconclusive: 4.85%,
O=C(Nc1ccccc1O)c1cc(S(=O)(=O)N2CCOCC2)c(Cl)cc1Cl,inconclusive: -4.18%,
O=C1Cc2ccccc2Sc2ccccc21,inconclusive: -91.5%,
COc1ccc(NC(=O)c2cc3c(COC(C)=O)cnc(C)c3oc2=Nc2cccc(C(=O)O)c2)c(OC)c1,inconclusive: 4.33%,
COCCN(C)C(=O)CCc1nnc(Cc2ccc(-c3ccccc3)cc2)o1,,"inconclusive: 11.2 µM [falling, single point]"
Clc1ccc(NCc2ccsc2)cc1,inconclusive: 5.16%,
CCCC[n+]1ccn(-c2nc3ccccc3nc2[N-]S(=O)(=O)c2ccc(Cl)cc2)c1,inactive,
O=C(COc1ccccc1Cl)NNC(=O)c1ccc2c(=O)n3c(nc2c1)CCC3,inactive,
O=C(/C=C/c1ccccc1)c1c[nH]c2ccccc12,,"inconclusive: 22.4 µM [falling, partial curve]"
Cc1csc(Nc2ccc(Cl)cc2)[n+]1-c1ccc(Cl)cc1,inconclusive: 9.34%,
CC(=O)c1ccc(NC(=O)CN2C(=O)NC(C)(C3CCCCC3)C2=O)cc1 (stereo not drawn),inactive,
O=C(Nc1cccc(F)c1)N(Cc1ccc(Cl)cc1)CC(O)C(F)(F)F (stereo not drawn),inconclusive: 12.8%,
COc1ccc(-c2csc(Cc3nc(O)cs3)n2)cc1,inconclusive: -2.72%,
O=C(/C=C/c1ccc(F)cc1)Nc1nc2ccccc2[nH]1,,"inconclusive: 5.8 µM [falling, full curve]"
CCCN(CC(=O)Nc1ccccc1OC)C(=O)c1cc(S(=O)(=O)NCc2ccccc2)ccc1C,inconclusive: -0.386%,
CCN=C(N/N=C/c1ccc([N+](=O)[O-])cc1)SC,inactive,
O=C(Nc1cccc2ccccc12)c1ccc([N+](=O)[O-])o1,,"inconclusive: 35.5 µM [falling, single point]"

Compound,"activity change, negative = inhibition",Potency
CCc1ccc(C(=O)CN2C(=O)C(C)N(c3ccc(C)cc3)C2=O)cc1 (stereo not drawn),inconclusive: 5.38%,
S=C(Nc1ccc(Cl)cc1)NC1CC2CCCC(C1)N2C1CC1 (stereo not drawn),inconclusive: -0.284%,
COc1ccc(NC(=O)/C(C#N)=C\c2cc(OC)c(OCc3ccc(C(=O)O)cc3)cc2Br)cc1,,"inconclusive: 0.794 µM [falling, full curve, poor fit]"
Cc1ccc(C(=O)C2OC(=O)C(C)(C)C(=O)C2(C)C)cc1 (stereo not drawn),inactive,
O=C1CCN(CCc2ccccc2)CCN1CCO,inactive,
Cc1ccc(CNC(=O)C2CC(c3ccccc3F)=NO2)cc1 (stereo not drawn),inconclusive: -12.3%,
CCOP(=O)(OCC)c1nc(-c2ccc(Cl)cc2)oc1NCc1ccccc1,inactive,
O=C(c1ccccc1)C(CCC(CN1CCOCC1)C(=O)c1ccccc1)CN1CCOCC1 (stereo not drawn),,"inconclusive: 5.62 µM [falling, single point]"
CCOC(=O)c1c(C)[nH]c(C(=O)N/N=C/c2cccc(OC)c2)c1C,,"inconclusive: 3.26 µM [falling, partial curve, poor fit]"
Cc1ccc(S(=O)(=O)N2CCN(CC(=O)Nc3ccc([N+](=O)[O-])cc3)CC2)cc1C,inactive,
COC(=O)c1c(-c2ccc(Br)cc2)noc1N,,"inconclusive: 32.6 µM [falling, partial curve, poor fit]"
O=c1[nH]c(SCc2ccccc2Cl)nc2[nH]ncc12,,"inconclusive: 20 µM [falling, single point]"
COc1ccc(C2/C=C\CC(OCc3ccccc3)CC(=O)N2Cc2cccc(F)c2)cc1 (stereo not drawn),inactive,
Brc1ccc(-c2nn3c(Cc4ccccc4)nnc3s2)o1,inactive,
O=C(Nc1cccc(F)c1)Nc1ccc(Cl)cn1,inconclusive: 2.75%,
CNC(=S)NNc1nncc2ccccc12,,"inconclusive: 35.5 µM [cytotoxic, single point]"
O=C1CC(=C(c2ccccc2)c2ccccc2)C(=O)N1CCCCN1CCN(c2cccc(Cl)c2)CC1,inactive,
O=C(NNC(=S)NC1CCCCC1)c1ccccc1O,,"inconclusive: 35.5 µM [rising, single point]"
Nc1ccc(S(=O)(=O)Nc2nccc(/C=C/c3cccc(Br)c3)n2)cc1,,"inconclusive: 8.91 µM [falling, partial curve]"
Cc1cccc(NC(=O)c2sc(Cl)nc2-c2ccccc2)c1,inconclusive: 3.98%,
Cc1ccsc1C(=O)C1CCCN(Cc2cn(C)nc2-c2ccccc2)C1 (stereo not drawn),inactive,

Compound,"activity change, negative = inhibition",Potency
CN(c1ccccc1)S(=O)(=O)c1cccc(NC(=O)c2ccncc2)c1,inactive,
CC(C)=NNC(=O)c1c(O)c2ccccc2[nH]c1=O,,"inconclusive: 3.16 µM [falling, partial curve, poor fit]"
O=C(NCC1CCCO1)c1cc(-c2ccc(F)cc2)no1 (stereo not drawn),,"inconclusive: 12.6 µM [falling, partial curve]"
CC(C)OCCCN(C)C1CCN(S(=O)(=O)c2ccc(-c3cc(C(F)(F)F)no3)s2)CC1,inactive,
CCc1ccccc1NC(=O)N1CCCc2ccccc21,inactive,
COc1ccc(N2C(=O)C3CCCN3C2=S)cc1 (stereo not drawn),inactive,
COC(=O)c1ccc(CSc2nc3cc(Cl)ccc3s2)o1,inconclusive: -0.348%,
Brc1ccc2[nH]c3c(NCc4ccccn4)ncnc3c2c1,inconclusive: 26.9%,
CN(C)c1ccc(-c2nc3cc(N)ccc3o2)cc1,,"inconclusive: 22.4 µM [falling, single point]"
CCN(CC)C(=O)CSc1nc2ccccc2c(=O)n1OC(C)C,inconclusive: 8.37%,
Cc1cc(S(=O)(=O)NC2CCCCC2)ccc1OCC(=O)NCc1cccnc1,,"inconclusive: 32.6 µM [rising, partial curve, poor fit]"
CC1CCN(C(=O)CSc2ccc(-c3ccc4c(c3)OCCO4)nn2)CC1,inconclusive: -17.6%,
COc1ccc(NC(=O)Nc2cccc3c2O[C@H](CN(C)S(=O)(=O)c2cccs2)[C@@H](C)CN([C@H](C)CO)C3=O)cc1,inconclusive: 4.22%,
COc1cccc2cc(-c3nc(Nc4cccc(C)c4)sc3C)c(=O)oc12,inactive,
COc1cc(/C=N/NC(=O)c2cc(C)oc2C)ccc1O,,"inconclusive: 11.2 µM [falling, partial curve]"
CC(NC(=O)C12CC3CC(CC(C3)C1)C2)c1ccc2c(c1)OCCO2 (stereo not drawn),inconclusive: 2.79%,
CCCCOC(=O)Nc1nnc(CC)s1,,"inconclusive: 29.1 µM [falling, single point]"
COc1ccccc1NC(=O)c1cc2ccc3cccnc3c2[nH]1,,"inconclusive: 25.1 µM [falling, single point]"
CC(=O)Oc1ccc(C(=O)Nc2nccs2)cc1,inconclusive: 12%,
COc1ccc(OCC(=O)NCCc2c[nH]c3ccccc23)cc1,inactive,
CCOC(=O)c1ccc(NS(C)(=O)=O)cc1,inconclusive: 11.1%,

# 20 successive compounds out of the list so far, quoted:
Compound,"activity change, negative = inhibition",Potency
O=C1CC(=C(c2ccccc2)c2ccccc2)C(=O)N1CCCCN1CCN(c2cccc(Cl)c2)CC1,inactive,
O=C(NNC(=S)NC1CCCCC1)c1ccccc1O,,"inconclusive: 35.5 µM [rising, single point]"
Nc1ccc(S(=O)(=O)Nc2nccc(/C=C/c3cccc(Br)c3)n2)cc1,,"inconclusive: 8.91 µM [falling, partial curve]"
Cc1cccc(NC(=O)c2sc(Cl)nc2-c2ccccc2)c1,inconclusive: 3.98%,
Cc1ccsc1C(=O)C1CCCN(Cc2cn(C)nc2-c2ccccc2)C1 (stereo not drawn),inactive,
CN(c1ccccc1)S(=O)(=O)c1cccc(NC(=O)c2ccncc2)c1,inactive,
CC(C)=NNC(=O)c1c(O)c2ccccc2[nH]c1=O,,"inconclusive: 3.16 µM [falling, partial curve, poor fit]"
O=C(NCC1CCCO1)c1cc(-c2ccc(F)cc2)no1 (stereo not drawn),,"inconclusive: 12.6 µM [falling, partial curve]"
CC(C)OCCCN(C)C1CCN(S(=O)(=O)c2ccc(-c3cc(C(F)(F)F)no3)s2)CC1,inactive,
CCc1ccccc1NC(=O)N1CCCc2ccccc21,inactive,
COc1ccc(N2C(=O)C3CCCN3C2=S)cc1 (stereo not drawn),inactive,
COC(=O)c1ccc(CSc2nc3cc(Cl)ccc3s2)o1,inconclusive: -0.348%,
Brc1ccc2[nH]c3c(NCc4ccccn4)ncnc3c2c1,inconclusive: 26.9%,
CN(C)c1ccc(-c2nc3cc(N)ccc3o2)cc1,,"inconclusive: 22.4 µM [falling, single point]"
CCN(CC)C(=O)CSc1nc2ccccc2c(=O)n1OC(C)C,inconclusive: 8.37%,
Cc1cc(S(=O)(=O)NC2CCCCC2)ccc1OCC(=O)NCc1cccnc1,,"inconclusive: 32.6 µM [rising, partial curve, poor fit]"
CC1CCN(C(=O)CSc2ccc(-c3ccc4c(c3)OCCO4)nn2)CC1,inconclusive: -17.6%,
COc1ccc(NC(=O)Nc2cccc3c2O[C@H](CN(C)S(=O)(=O)c2cccs2)[C@@H](C)CN([C@H](C)CO)C3=O)cc1,inconclusive: 4.22%,
COc1cccc2cc(-c3nc(Nc4cccc(C)c4)sc3C)c(=O)oc12,inactive,
COc1cc(/C=N/NC(=O)c2cc(C)oc2C)ccc1O,,"inconclusive: 11.2 µM [falling, partial curve]"

# Later entries:

Compound,"activity change, negative = inhibition",Potency
C[C@H](CO)N1C[C@H](C)[C@@H](CN(C)C(=O)Nc2ccc3c(c2)OCO3)Oc2ccc(NC(=O)Cn3cnnn3)cc2C1=O,inactive,
Cc1ccc(S(=O)(=O)N2C(=O)c3cccc4cccc2c34)cc1,inconclusive: 9.22%,
COc1ccc(N2C(=O)CC(Sc3n[nH]c(-c4ccccc4)n3)C2=O)cc1 (stereo not drawn),inactive,
COc1ccc(-c2cc(C#N)nc(N3CCN(C)CC3)n2)cc1,inactive,
Cc1ccc(C(=O)NCCCC(=O)O)o1,inconclusive: 4.09%,
COc1ccc(Br)cc1S(=O)(=O)N1CCCC1,,"inconclusive: 23.1 µM [falling, single point]"
O=C(c1ccco1)N(Cc1cccs1)C1CCS(=O)(=O)C1 (stereo not drawn),inconclusive: -9.38%,
COc1ccc(C(=O)C(/C=N/O)=N/Nc2ccc(F)cc2)cc1,inconclusive: 8.96%,
COC(=O)c1ccccc1CCC(C)=O,,"inconclusive: 15.8 µM [falling, partial curve, poor fit]"
COc1ccc(NC(=O)c2cccc(Oc3ccccc3)c2)cn1,,"inconclusive: 12.6 µM [falling, partial curve, poor fit]"
CCCC(C)C(=O)Nc1cccc(NC(C)=O)c1 (stereo not drawn),inactive,
Cc1cc2oc(=O)cc(-c3ccccc3)c2c(C)c1-c1ccc(OC(F)(F)F)cc1,inconclusive: -0.389%,
Cc1ccc(SCc2cc(=O)[nH]c(/N=C(\N)Nc3ccccc3Sc3ccccc3)n2)cc1,inconclusive: 4.61%,
COC(=O)CCC(=O)Nc1ccc(NC(=O)CCC(=O)OC)cc1,inconclusive: -11.2%,
CCOC(=O)c1c(S(=O)(=O)Nc2ccc(C)cn2)c(C)n(C)c1C,inactive,
Cc1n[nH]c(=S)n1-c1ccc(Cl)cc1,inconclusive: 0.371%,
CC(=O)N(Cc1ccc(F)cc1)C1=C(NCCc2ccccc2)C(=O)c2ccccc2C1=O,,"inconclusive: 18.4 µM [rising, single point]"
COc1ccc(C)cc1NC(=O)CSc1nc(=O)n(Cc2ccncc2)c2c1CCC2,inconclusive: -3.85%,
C=Cc1ccc(CN2C(=O)N(c3ccc(CC)cc3)S(=O)(=O)c3ccccc32)cc1,inconclusive: 16.1%,
CCOC(=O)C1CCN(C(=O)CSc2ccc(Cl)cc2)CC1,,"inconclusive: 6.51 µM [falling, single point]"
